# Source: PubChem BioAssay AID256 (DTP/NCI, 2004)
# The list is a part of this screen's results and no random one: it gathers tests that were run many times, whatever their T/C, doses with no T/C, and many T/C values between a quarter and a half above the control. Further doses and runs are listed elsewhere. T/C: endpoint of the treated group in % of that of the vehicle group. Some entries give survivors of the animals treated and no T/C: the source files T/C as zero there, which appears to mark a toxic dose or a test without result, not a measured value. Some doses without a T/C left all or most animals alive at the check, yet need not have been tolerated: the source hardly ever lists a survival T/C far under the control, and the zero likely stands for such cases as well. Counts of survivors are from the toxicity check (mostly the fifth day) where no day follows; animals may have died later. Schedule codes are those of the source, read here as Q, the interval in days (D) or hours (H), X, the number of doses. Some structures stand for samples that the source files as different forms (salt, stereo form or complex); doses refer to the form tested. Some entries were tested several times; the values are given in rising order. Where survival is the endpoint, this PubChem deposit counts one and a half times the control or more as active, and values a quarter to a half above the control carry no call in these data; other NCI protocols may use other cut-offs. Some T/C values are followed by the survivors on the day toxicity was checked, most often the fifth; where none is given, no animal had died by that day.
# Tested on: CD2F1 mice, L1210 leukemia ip, survival T/C
# Test: NCI In Vivo Anticancer Drug Screen. Data for tumor model L1210 Leukemia (intraperitoneal) in CD2F1 (CDF1) mice
# Settings: higher T/C = longer survival
# Procedure, shortened: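 Tumor-bearing mice (transplanted tumor) were split into treated and vehicle control groups, and the measured endpoint of each treated group was divided by that of its vehicle controls.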
# [1] = T/C endpoint: mean survival time, dose: 200.0 mg/kg/injection, schedule: Q01DX001 (ip), vehicle: saline with Tween-80
# [2] = T/C endpoint: mean survival time, dose: 400.0 mg/kg/injection, schedule: Q01DX009 (ip), vehicle: Klucel (hydroxypropylcellulose) (HPC)
# [3] = T/C endpoint: mean survival time, dose: 400.0 mg/kg/injection, schedule: Q04DX003 (ip), vehicle: saline with Tween-80
# [4] = T/C endpoint: mean survival time, dose: 400.0 mg/kg/injection, schedule: Q04DX003 (ip), vehicle: saline
# [5] = T/C endpoint: mean survival time, dose: 200.0 mg/kg/injection, schedule: Q01DX009 (ip), vehicle: saline with Tween-80
# [6] = T/C endpoint: mean survival time, dose: 400.0 mg/kg/injection, schedule: Q01DX009 (ip), vehicle: saline with Tween-80
# [7] = T/C endpoint: mean survival time, dose: 200.0 mg/kg/injection, schedule: Q04DX003 (ip), vehicle: saline with Tween-80
# [8] = T/C endpoint: mean survival time, dose: 100.0 mg/kg/injection, schedule: Q04DX003 (ip), vehicle: saline with Tween-80
# [9] = T/C endpoint: mean survival time, dose: 100.0 mg/kg/injection, schedule: Q04DX002 (ip), vehicle: saline with Tween-80
# [10] = T/C endpoint: mean survival time, dose: 400.0 mg/kg/injection, schedule: Q01DX001 (ip), vehicle: saline
# [11] = T/C endpoint: mean survival time, dose: 50.0 mg/kg/injection, schedule: Q01DX009 (ip), vehicle: saline with Tween-80
# [12] = T/C endpoint: mean survival time, dose: 200.0 mg/kg/injection, schedule: Q04DX002 (ip), vehicle: saline with Tween-80
# [13] = T/C endpoint: mean survival time, dose: 400.0 mg/kg/injection, schedule: Q04DX002 (ip), vehicle: saline with Tween-80
# [14] = T/C endpoint: mean survival time, dose: 100.0 mg/kg/injection, schedule: Q01DX009 (ip), vehicle: saline with Tween-80
# [15] = T/C endpoint: mean survival time, dose: 300.0 mg/kg/injection, schedule: Q01DX001 (ip), vehicle: saline
structure (smiles),measurement,setting,value
C/C=C1/C[N+]2(C)CCC34C(=C(C(=O)OC)C1CC32)Nc1ccc(O)cc14 (stereo unspecified),survivor count,"T/C endpoint: mean survival time, dose: 100.0 mg/kg/injection, schedule: Q01DX001 (ip), vehicle: saline with Tween-80",1 of 6
same,survivor count,[1],0 of 6
same,survivor count,"T/C endpoint: mean survival time, dose: 400.0 mg/kg/injection, schedule: Q01DX001 (ip), vehicle: saline with Tween-80",0 of 5
CCC1OCC(C(Cl)CCl)O1 (stereo unspecified),survivor count,[2],0 of 6
O=C1CCN(Cc2ccccc2)C(=O)N1,survivor count,[3],0 of 6
CNC(=O)c1nc2c(nc1NC)n(C)c(=O)n2C,survivor count,"T/C endpoint: mean survival time, dose: 100.0 mg/kg/injection, schedule: Q01DX005 (ip), vehicle: other",6 of 6
same,survivor count,"T/C endpoint: mean survival time, dose: 200.0 mg/kg/injection, schedule: Q01DX005 (ip), vehicle: other",4 of 6
CN(C)CCCCO,survivor count,[4],1 of 6
C/C=C1/CC2C=Nc3cc(O)c(OC)cc3C(=O)N2C1 (stereo unspecified),T/C,"T/C endpoint: median survival time, dose: 0.64 mg/kg/injection, schedule: Q01DX005 (ip), vehicle: DMSO",131 % of control
C#CC(CC(C)CC(C)(C)C)N(C)C (stereo unspecified),survivor count,[5],3 of 6
same,survivor count,[6],0 of 6
COc1cc(NC(=O)O/N=C/c2ccccn2)cc(OC)c1OC,survivor count,[1],6 of 6
C=CCNC(=O)c1ccc[n+](CC(=O)Nc2ccccc2)c1,survivor count,[7],3 of 6
same,survivor count,[3],0 of 6
CCOc1ccccc1C1N(C)CCCN1C,survivor count,[8],0 of 6
same,survivor count,[7],0 of 6
same,survivor count,[3],0 of 6
CC1CN1CC(O)C(O)CN1CC1C (stereo unspecified),T/C,"T/C endpoint: mean survival time, dose: 0.61 mg/kg/injection, schedule: Q04DX003 (ip), vehicle: saline",138 % of control
same,T/C,"T/C endpoint: mean survival time, dose: 0.92 mg/kg/injection, schedule: Q04DX003 (ip), vehicle: saline",131 % of control
same,survivor count,"T/C endpoint: mean survival time, dose: 5.0 mg/kg/injection, schedule: Q01DX009 (ip), vehicle: saline",6 of 6
same,survivor count,"T/C endpoint: mean survival time, dose: 10.0 mg/kg/injection, schedule: Q01DX009 (ip), vehicle: saline",3 of 6
Clc1ccc(CC[PH+]2CC=CC2)cc1.Clc1ccc(CC[PH+]2CC=CC2)cc1.[Cl][Ni][Cl],survivor count,"T/C endpoint: mean survival time, dose: 50.0 mg/kg/injection, schedule: Q01DX009 (ip), vehicle: DMSO",3 of 3
same,survivor count,[9],0 of 3
N/C(Cc1ccc(N)cc1)=N\O,survivor count,[7],0 of 6
same,survivor count,[3],0 of 6
CC(=O)NNC(=O)c1ccc(Br)cc1,survivor count,[6],3 of 6
c1ccc2c(-c3nn[nH]n3)nccc2c1,survivor count,[10],0 of 3
CCCCC[CH2][Sn]([I])([CH2]C)[CH2]C,survivor count,"T/C endpoint: mean survival time, dose: 6.25 mg/kg/injection, schedule: Q01DX009 (ip), vehicle: saline with Tween-80",2 of 6
same,survivor count,"T/C endpoint: mean survival time, dose: 12.5 mg/kg/injection, schedule: Q01DX009 (ip), vehicle: saline with Tween-80",0 of 6
same,survivor count,"T/C endpoint: mean survival time, dose: 25.0 mg/kg/injection, schedule: Q01DX009 (ip), vehicle: saline with Tween-80",0 of 6
same,survivor count,"T/C endpoint: mean survival time, dose: 25.0 mg/kg/injection, schedule: Q04DX002 (ip), vehicle: saline with Tween-80",0 of 3
same,survivor count,"T/C endpoint: mean survival time, dose: 50.0 mg/kg/injection, schedule: Q04DX002 (ip), vehicle: saline with Tween-80",0 of 3
same,survivor count,[9],0 of 3
CC1=CC(c2ccccc2)=CC(C)(C)C1 (tested in a mixture with another compound),survivor count,[7],6 of 6
same,survivor count,[3],4 of 6
COc1cc(OC)c(OC)cc1/C=C\c1ccc2ccccc2[n+]1C,survivor count,[11],4 of 6
same,survivor count,[7],0 of 6
same,survivor count,[3],0 of 6
O=S(=O)(OCCCCCCOS(=O)(=O)c1cccnc1)c1cccnc1,T/C,"T/C endpoint: mean survival time, dose: 20.0 mg/kg/injection, schedule: Q04DX002 (ip), vehicle: saline with Tween-80",146 % of control
same,survivor count,"T/C endpoint: mean survival time, dose: 40.0 mg/kg/injection, schedule: Q04DX002 (ip), vehicle: saline with Tween-80",1 of 3
same,survivor count,[9],0 of 3
same,survivor count,[12],0 of 3
same,survivor count,[13],0 of 3
Clc1ccc(COCc2ccccc2Cn2ccnc2)cc1,survivor count,[5],3 of 6
same,survivor count,[6],0 of 6
O=C1c2ccccc2C(=O)N1c1ccc(Br)cc1,survivor count,"T/C endpoint: mean survival time, dose: 200.0 mg/kg/injection, schedule: Q01DX001 (ip), vehicle: Klucel (hydroxypropylcellulose) (HPC)",1 of 3
O=C1c2ccccc2C(Cl)=C(Cl)C1(Cl)Cl,survivor count,[14],3 of 6
same,survivor count,[5],0 of 6
same,survivor count,[7],2 of 6
same,survivor count,[6],1 of 6
Cc1nc(-c2cccc(Cl)c2)oc1-c1ccccc1,T/C,[13],125 % of control
CC(C)(C)N1CCc2cc3c(cc2C1)OCO3,survivor count,"T/C endpoint: mean survival time, dose: 150.0 mg/kg/injection, schedule: Q01DX001 (ip), vehicle: saline",1 of 6
same,survivor count,"T/C endpoint: mean survival time, dose: 200.0 mg/kg/injection, schedule: Q01DX001 (ip), vehicle: saline",0 of 6 and 2 of 6
same,survivor count,[15],0 of 6
same,survivor count,[10],0 of 6
C1=NC(c2ccccn2)=NNC(c2ccccn2)=C1c1ccccc1,survivor count,[2],1 of 6
O=C1C=CC(=O)O1 (tested in a mixture with another compound),survivor count,"T/C endpoint: mean survival time, dose: 6.25 mg/kg/injection, schedule: Q01DX001 (ip), vehicle: other",1 of 6
same,T/C,"T/C endpoint: mean survival time, dose: 100.0 mg/kg/injection, schedule: Q01DX001 (ip), vehicle: saline",129 % of control
same,survivor count,"T/C endpoint: mean survival time, dose: 600.0 mg/kg/injection, schedule: Q01DX001 (ip), vehicle: saline",3 of 6
same,T/C,"T/C endpoint: mean survival time, dose: 800.0 mg/kg/injection, schedule: Q01DX001 (ip), vehicle: saline",129 % of control [5 of 6 alive]
same,T/C,"T/C endpoint: mean survival time, dose: 1200.0 mg/kg/injection, schedule: Q01DX001 (ip), vehicle: saline",134 % of control
O=C(CN1CC1)NCCCCCCCCNC(=O)CN1CC1,T/C,"T/C endpoint: mean survival time, dose: 10.0 mg/kg/injection, schedule: Q01DX009 (ip), vehicle: carboxymethylcellulose (CMC)",128 % of control
same,T/C,"T/C endpoint: mean survival time, dose: 15.0 mg/kg/injection, schedule: Q01DX009 (ip), vehicle: carboxymethylcellulose (CMC)",148 % of control
same,T/C,"T/C endpoint: mean survival time, dose: 50.0 mg/kg/injection, schedule: Q01DX001 (ip), vehicle: carboxymethylcellulose (CMC)",134 % of control
same,T/C,"T/C endpoint: mean survival time, dose: 75.0 mg/kg/injection, schedule: Q01DX001 (ip), vehicle: carboxymethylcellulose (CMC)",136 % of control [5 of 6 alive]
Cc1cccc(/C=N\OCc2ccccc2)n1,survivor count,[6],3 of 6
CCCCC(=O)C(=O)OC(OC(=O)C(=O)CCCC)c1ccccc1,survivor count,[15],0 of 6
COC1CCC2=C(C1)C(=O)CC1c3ccccc3CCN21 (stereo unspecified) (tested in a mixture with another compound),survivor count,[8],2 of 6
same,survivor count,[7],2 of 6
same,survivor count,[3],0 of 6
CCOC(=O)N1C(=O)C2C3CCC(O3)C2C1=O (stereo unspecified),survivor count,[9],0 of 3
same,survivor count,[12],0 of 3
same,survivor count,[13],0 of 3
O=C(Nc1nncs1)c1ccncc1,T/C,[11],126 % of control
same,T/C,[14],125 [5 of 6 alive] and 126 % of control
same,survivor count,[6],3 of 6
COc1ccc2c(Nc3ccc(NS(C)(=O)=O)cc3)c3ccccc3nc2c1,T/C,"T/C endpoint: mean survival time, dose: 67.0 mg/kg/injection, schedule: Q04DX003 (ip), vehicle: saline with Tween-80",132 % of control
same,survivor count,[14],3 of 6
same,T/C,"T/C endpoint: mean survival time, dose: 100.0 mg/kg/injection, schedule: Q04DX003 (ip), vehicle: saline",130 % of control
same,survivor count,"T/C endpoint: mean survival time, dose: 200.0 mg/kg/injection, schedule: Q04DX003 (ip), vehicle: saline",6 of 6
same,survivor count,[4],2 of 6
O=C(O)CCCC(=O)C1CCCCC1,survivor count,[3],5 of 6
COc1cc(OC)c(NC(=O)Nc2ccc(NC(C)=O)cc2)cc1Cl,survivor count,[11],3 of 3
same,survivor count,[14],3 of 3
same,survivor count,[5],3 of 3
C=C1C(O)C2(O)OCC34C(CC5C(C)=CC(=O)C(O)C5(C)C23)OC(=O)C(OC(=O)C(C)(O)CC)C14 (stereo unspecified),survivor count,"T/C endpoint: mean survival time, dose: 4.0 mg/kg/injection, schedule: Q01DX009 (ip), vehicle: saline + alcohol",0 of 6
